From patent US11072598B2, “Somatostatin modulators and uses thereof” (CRINETICS PHARMACEUTICALS, INC., priority 2017, dated 2021)
At least one compound was matched to its structure with a doubt left.

Chains of the proteins cited; added tags and fusions are not shown. Lines headed by an entry give the natural chain unless they say otherwise; changes in a name come on top.
UniProt P31391: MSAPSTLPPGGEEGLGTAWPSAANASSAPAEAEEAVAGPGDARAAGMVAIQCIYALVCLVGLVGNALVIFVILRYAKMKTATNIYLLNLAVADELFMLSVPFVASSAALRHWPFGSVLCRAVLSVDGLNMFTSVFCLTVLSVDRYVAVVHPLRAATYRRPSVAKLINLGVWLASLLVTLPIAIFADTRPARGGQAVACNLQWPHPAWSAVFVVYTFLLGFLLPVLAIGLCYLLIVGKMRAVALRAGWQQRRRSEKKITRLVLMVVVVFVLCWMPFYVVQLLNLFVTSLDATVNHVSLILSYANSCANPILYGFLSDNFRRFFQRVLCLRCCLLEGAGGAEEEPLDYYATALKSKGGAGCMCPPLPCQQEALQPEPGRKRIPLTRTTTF

Target: T1, hSSTR4 (Homo sapiens, UniProt P31391)
T1 construct: expressed in transfected cells
Experiment: inhibition of cAMP via hSSTR4
Format: cell-based
Conditions: selectivity for inhibition of cAMP via hSSTR2 vs. hSSTR4
Text: General overview: All five SSTR subtypes are Gi coupled G-protein coupled receptors (GPCRs) that lead to decreases in intracellular cyclic AMP (cAMP) when activated by an agonist. Therefore, measurement of intracellular cAMP levels can be used to assess whether compounds of the invention are agonists of SSTR subtypes (John Kelly, Troy Stevens, W. Joseph Thompson, and Roland Seifert, Current Protocols in Pharmacology, 2005, 2.2.1-2.2). One example of an intracellular cAMP assay is described below. cAMP assay protocol:
Four days prior to the assay, 5,000 Chinese hamster ovary cells (CHO-K1, ATCC #CCL-61) stably expressing the human somatostatin receptor subtype 2 are plated in each well of a 96-well tissue culture-treated plate in Ham's F12 growth media (ThermoFisher #10-080-CM) supplemented with 10% donor bovine serum (Gemini Bio-Products #100-506), 100 U/mL penicillin; 100 ug/mL streptomycin; 2 mM L-glutamine (Gemini Bio-Products #400-110) and 0.2 mg/mL hygromycin B (GoldBio #31282-04-9). The cells are cultured at 37° C., 5% CO2 and 95% humidity. […] The time-resolved fluorescent signal is read with a Tecan M1000Pro multiplate reader. The intracellular cAMP concentrations are calculated by regression to a standard curve and are plotted vs. the concentration of the compounds of the invention and the EC50 of the compounds are calculated using standard methods. […]

SMILES	hSST4/hSST2 (ratio)
COc1cccc2nc(-c3c(N)ncc(-c4cc(C)cc(F)c4)c3N3CCC(N)CC3)[nH]c12 [Compound 1-13, 4-(4-aminopiperidin-1-yl)-5-(3-fluoro-5-methylphenyl)-3-(7-methoxy-1H-1,3-benzodiazol-2-yl)pyridin-2-amine]	d (between 1 and 2.5)
Cc1cc(F)cc(-c2cnc(N)c(-c3nc4ccc(F)c(F)c4[nH]3)c2N2CCC(N)CC2)c1 [Compound 1-15, 4-(4-aminopiperidin-1-yl)-3-(6,7-difluoro-1H-1,3-benzodiazol-2-yl)-5-(3-fluoro-5-methylphenyl)pyridin-2-amineine]	c (between 2.5 and 15)
